No constants are given. Whether binding was seen depends on the method and setting. In cells and extracts the contact can be indirect. Some results given as binding are weak or reduced against the parent protein; the word gives no strength. For part of these data: Sequences can lack the tags named with a protein.
Key:
Experiment in all cases: pull-down; GST-effector fusion protein on glutathione-Sepharose beads incubated with clarified lysate of transfected cells for 1 h at 4 °C; lysis buffer 20 mM Hepes pH 7.4, 100 mM NaCl, 5 mM MgCl2, 0.1% NP40, 10% glycerol, 1 mM DTT; washed 3 times with PBS-T (1% Triton X-100); immunoblot with anti-Myc or anti-Rab antibody, bands quantified with LI-COR Odyssey; only the target purified
[1] = target: T1, GST fusion protein of Rabenosyn-5 RBD-C (aa728-784) (UniProt Q9H1K0)
T1 sequence: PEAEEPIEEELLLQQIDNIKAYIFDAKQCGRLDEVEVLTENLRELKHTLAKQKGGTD

Sequences of proteins named here, by UniProt entry; tags and fusion partners are left off. A change or cut given only in a name is not applied to a line headed by its entry. Residues count along the entry.
UniProt Q15075, residues 1-209: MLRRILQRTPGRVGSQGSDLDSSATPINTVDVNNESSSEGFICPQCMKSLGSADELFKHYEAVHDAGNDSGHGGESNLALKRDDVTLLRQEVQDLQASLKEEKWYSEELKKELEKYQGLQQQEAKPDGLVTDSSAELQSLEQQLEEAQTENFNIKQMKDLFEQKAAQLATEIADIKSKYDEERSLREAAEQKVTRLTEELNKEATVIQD
UniProt P20339: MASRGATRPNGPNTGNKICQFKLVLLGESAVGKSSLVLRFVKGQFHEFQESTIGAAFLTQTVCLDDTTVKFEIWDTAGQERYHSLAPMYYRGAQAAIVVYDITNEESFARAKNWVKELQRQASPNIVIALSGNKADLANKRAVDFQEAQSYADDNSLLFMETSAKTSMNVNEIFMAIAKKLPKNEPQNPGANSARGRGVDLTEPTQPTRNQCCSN

[2] = target: GST fusion protein of EEA1 RBD-N (aa1-209) (UniProt Q15075)
[3] = target: T2, GST fusion protein of Rabenosyn-5 RBD-N (aa1-40) (UniProt Q9H1K0)
T2 sequence: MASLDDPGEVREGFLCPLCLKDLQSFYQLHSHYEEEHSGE

Measured: binding

Rab5:Q79L (from UniProt P20339 1-215)
binds: [1] | [2] | [3]
